By UniProt entry, the sequences of proteins in these tests, tags left out.
UniProt Q0JBA9, entry or part of it: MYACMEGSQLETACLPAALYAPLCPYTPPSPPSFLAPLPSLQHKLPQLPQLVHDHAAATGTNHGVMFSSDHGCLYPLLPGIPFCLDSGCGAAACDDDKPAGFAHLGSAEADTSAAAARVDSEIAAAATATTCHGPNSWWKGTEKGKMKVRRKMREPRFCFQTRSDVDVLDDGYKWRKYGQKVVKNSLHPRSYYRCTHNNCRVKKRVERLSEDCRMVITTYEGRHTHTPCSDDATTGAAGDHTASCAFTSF

The other results are listed elsewhere or left out.
The sequences below were run against OsWRKY34 (Oryza sativa, UniProt Q0JBA9 1-250) (assay: protein-binding microarray (RPBM); PBS, 2% BSA, 51.3 ng/ul salmon testes DNA, 50 uM zinc acetate, 200 nM TF, 25 C, 1 h; high values mean tight binding). Conditions: protein: recombinant; tags: N-terminal polyhistidine and DsRed monomer fusion (pET32a); label: CyDye5-dUTP incorporated in the synthesized complementary strand; 3' TTTTT single-stranded linker to array surface; dsDNA, one strand shown.
Procedure, shortened: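 Binding signal is defined as the fluorescence intensity of each feature in arbitrary units, read on an Axon 4000B scanner. Transcription factors with N-terminal polyhistidine and DsRed fusions came from E. coli BL21-CodonPlus and were purified on Ni–NTA. They were incubated at 200 nM for 1 h at 25 °C on a custom Agilent array that had been made double-stranded with Cy5-dUTP, with 50 µM zinc acetate present, and the array was washed.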
With “AGTGGGCGGCAGGGTCTATTTTTGTAATTTTTTTGGCCGACGGAGTCACCTAGTGCAG” the binding signal was 9810 fluorescence intensity (a.u.). In the case of “CTCCTCGCTGCTGTTATATCCGCTTTCCTCTCCTCCTCCTCGGAGTCACCTAGTGCAG”, the binding signal is reported as 10600 fluorescence intensity (a.u.). In the case of “TTCTGGGTCGTGATGGGTTGTTGTGGTGGCGTGAGCAGGTCGGAGTCACCTAGTGCAG”, the binding signal is reported as 9060 fluorescence intensity (a.u.). “TATAATGATAGTACAGTTTGACGATTTTCTCTACTTCTGGCGGAGTCACCTAGTGCAG” was tested, and the binding signal was 8890 fluorescence intensity (a.u.). For “CACGATGATTGTTGCTGCACCATAGTCTCCATGTGTGTACCGGAGTCACCTAGTGCAG”, the binding signal was 8410 fluorescence intensity (a.u.). In the case of “TCATAGTACTTTAAGTGTGATTTATATCTTGTATATTTACCGGAGTCACCTAGTGCAG”, the binding signal is reported as 8880 fluorescence intensity (a.u.). With “GGCAGCTGTCTGATCCTGGTTTAACATCTTGAGAATTTTACGGAGTCACCTAGTGCAG” the binding signal was 8450 fluorescence intensity (a.u.). For “CCCTCTTTTCCGCACGCACGCTTTTCAAACTGCTAAACGACGGAGTCACCTAGTGCAG”, the binding signal was 9760 fluorescence intensity (a.u.). For “TACAGAACTTTTATCTGCTACCATCTACTTAACTGGCTTACGGAGTCACCTAGTGCAG”, the binding signal was 8670 fluorescence intensity (a.u.). In the case of “GGTGGGACGTGGTGGGCGTCAAGGCGGCGGTGGGAGGGGACGGAGTCACCTAGTGCAG”, the binding signal is reported as 20400 fluorescence intensity (a.u.). In the case of “TCATTTTCTGAAAAATCTGATTTCTATTTTTTTTCCATTTCGGAGTCACCTAGTGCAG”, the binding signal is reported as 10100 fluorescence intensity (a.u.). “AAATCCTCTCGTTTCTCCGCTCGCTGATTCATTCTCAACGCGGAGTCACCTAGTGCAG” was tested, and the binding signal was 9020 fluorescence intensity (a.u.). “TGAATATGGCAGCTTGGATCATTTACCTTTTAGCGTCCCTCGGAGTCACCTAGTGCAG” was tested, and the binding signal was 8750 fluorescence intensity (a.u.). “TTCGACTTTCAACCGGTCAGTCTCAGCGCTCTTTCTGATCCGGAGTCACCTAGTGCAG” was tested, and the binding signal was 9730 fluorescence intensity (a.u.). For “AATACTTAATTTTGTACTGATAGTAATCATTTGCATTCTACGGAGTCACCTAGTGCAG”, the binding signal was 9320 fluorescence intensity (a.u.). In the case of “ATGTAATTCACGCTCCATGTACTGCACATGATTTCGCACACGGAGTCACCTAGTGCAG”, the binding signal is reported as 8200 fluorescence intensity (a.u.). “ACGGTGCATCTCTCAGCCACACAGCCCCACCCGCGCCATGCGGAGTCACCTAGTGCAG” was tested, and the binding signal was 9850 fluorescence intensity (a.u.). With “CACCCCAGTCCCGTGTATTCCCCGCTCTTCCGCCTTCCGCCGGAGTCACCTAGTGCAG” the binding signal was 8410 fluorescence intensity (a.u.). With “CCATGGTCTCTTGATCGAGGTGTTCATTTTTTTTCCTCAACGGAGTCACCTAGTGCAG” the binding signal was 11900 fluorescence intensity (a.u.). For “CTCCCACCCTGCTTCACTCTGTGTCCCTGTGACAGACAAACGGAGTCACCTAGTGCAG”, the binding signal was 8230 fluorescence intensity (a.u.). In the case of “GTCCGCGTCACGCACGCGCGCCTGCTCTTGCCGCTCGATCCGGAGTCACCTAGTGCAG”, the binding signal is reported as 12200 fluorescence intensity (a.u.). In the case of “CCGCCGCCATTGACGACCACCGCGCTCGTCCCATCCCATGCGGAGTCACCTAGTGCAG”, the binding signal is reported as 9050 fluorescence intensity (a.u.). For “ATCTCTCTCATCCGATTTCTACGTTTTTCCCGCGGTCAAACGGAGTCACCTAGTGCAG”, the binding signal was 9690 fluorescence intensity (a.u.). With “CGTGGATTATTTCATTCCGTACCACTCCATCCATCCGAAGCGGAGTCACCTAGTGCAG” the binding signal was 8360 fluorescence intensity (a.u.). In the case of “GTAGTAACCTCTTGTTCGGTGTAGTGTGTAATTTTATTAGCGGAGTCACCTAGTGCAG”, the binding signal is reported as 8640 fluorescence intensity (a.u.). In the case of “CGGGTTCAATATATTGTTTTTTTTAAGACTGGTTCAATATCGGAGTCACCTAGTGCAG”, the binding signal is reported as 8880 fluorescence intensity (a.u.). In the case of “TATTACTTGGACCACTTTAAACTATTCATCATGTTTATTTCGGAGTCACCTAGTGCAG”, the binding signal is reported as 8500 fluorescence intensity (a.u.). “CCGCCATCTCATCTGATCTCATCCATTGATCCTCCTCGTTCGGAGTCACCTAGTGCAG” was tested, and the binding signal was 10400 fluorescence intensity (a.u.). “TCACACGCGCGCCACACTCATGCCATGTATGTCTATATATCGGAGTCACCTAGTGCAG” was tested, and the binding signal was 15400 fluorescence intensity (a.u.). With “AGGACTTTGGTTATCTAATCGAGTTTGTGTCTTTTTTTGTCGGAGTCACCTAGTGCAG” the binding signal was 8910 fluorescence intensity (a.u.). With “GCTTCCGCGTTTCTTCTCGGCGACGCACCCCACACACGCACGGAGTCACCTAGTGCAG” the binding signal was 9370 fluorescence intensity (a.u.). In the case of “AGTCTAAAATTTACCGCCTGTTTTGCACATATGTTTGGATCGGAGTCACCTAGTGCAG”, the binding signal is reported as 8510 fluorescence intensity (a.u.). For “ATGACCATATATGTAACCATGTATGCAGGGGCGGATCCAGCGGAGTCACCTAGTGCAG”, the binding signal was 8660 fluorescence intensity (a.u.). “ATGGTTTCCGTCCGTTTCCGTACCGTTTTCACCCCTACCCCGGAGTCACCTAGTGCAG” was tested, and the binding signal was 10100 fluorescence intensity (a.u.). With “TTAGTTGAGAGACGTTCGGTATTTGGTTTTGCGGTTGGGGCGGAGTCACCTAGTGCAG” the binding signal was 11200 fluorescence intensity (a.u.). For “GTCTCAATTCTCATCTACTCTCTTCTCTCCCTGTATGACCCGGAGTCACCTAGTGCAG”, the binding signal was 8160 fluorescence intensity (a.u.). With “TCGTTTGCCCGGATTTCATAAGTTGAGGGATGGGTTATACCGGAGTCACCTAGTGCAG” the binding signal was 8560 fluorescence intensity (a.u.). In the case of “CACAACTACTCCATATTTCCTTTTTTCTCATTTCTTCGATCGGAGTCACCTAGTGCAG”, the binding signal is reported as 10400 fluorescence intensity (a.u.). For “AACCCATTTTCTGCTCTGCTCTTGCTTTGCTTTGCATTTCCGGAGTCACCTAGTGCAG”, the binding signal was 14000 fluorescence intensity (a.u.). In the case of “TACATATGGTCTACGTACGCCGTCGAGTTGGGTGGGAAGACGGAGTCACCTAGTGCAG”, the binding signal is reported as 8980 fluorescence intensity (a.u.). For “ACCAGCTTGTTTTCCTCCTTATCAGTTCTTCTATACTGTCCGGAGTCACCTAGTGCAG”, the binding signal was 8050 fluorescence intensity (a.u.). In the case of “TGCATACCCCTTTCGTTTCCCTACCATATTCTCCGGGTGACGGAGTCACCTAGTGCAG”, the binding signal is reported as 12800 fluorescence intensity (a.u.).

From article PMC7819943, “Rice protein-binding microarrays: a tool to detect cis-acting elements near promoter regions in rice”
